# Screening data, single-dose tests

Chains of the proteins cited; added tags and fusions are not shown. Residues count along the entry.
UniProt P9WNZ1, whole entry: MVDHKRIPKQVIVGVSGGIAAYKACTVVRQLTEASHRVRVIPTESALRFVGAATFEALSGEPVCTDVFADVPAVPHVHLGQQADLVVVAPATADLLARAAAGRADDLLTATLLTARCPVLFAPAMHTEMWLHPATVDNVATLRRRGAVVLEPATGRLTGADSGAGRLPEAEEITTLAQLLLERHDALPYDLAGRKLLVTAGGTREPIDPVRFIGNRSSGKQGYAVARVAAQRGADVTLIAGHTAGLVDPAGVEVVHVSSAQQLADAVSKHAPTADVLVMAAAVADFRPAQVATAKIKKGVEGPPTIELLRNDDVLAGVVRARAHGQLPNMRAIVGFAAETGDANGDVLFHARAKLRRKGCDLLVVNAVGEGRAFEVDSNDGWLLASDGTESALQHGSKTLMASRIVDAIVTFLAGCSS
UniProt I6X8D2, whole entry: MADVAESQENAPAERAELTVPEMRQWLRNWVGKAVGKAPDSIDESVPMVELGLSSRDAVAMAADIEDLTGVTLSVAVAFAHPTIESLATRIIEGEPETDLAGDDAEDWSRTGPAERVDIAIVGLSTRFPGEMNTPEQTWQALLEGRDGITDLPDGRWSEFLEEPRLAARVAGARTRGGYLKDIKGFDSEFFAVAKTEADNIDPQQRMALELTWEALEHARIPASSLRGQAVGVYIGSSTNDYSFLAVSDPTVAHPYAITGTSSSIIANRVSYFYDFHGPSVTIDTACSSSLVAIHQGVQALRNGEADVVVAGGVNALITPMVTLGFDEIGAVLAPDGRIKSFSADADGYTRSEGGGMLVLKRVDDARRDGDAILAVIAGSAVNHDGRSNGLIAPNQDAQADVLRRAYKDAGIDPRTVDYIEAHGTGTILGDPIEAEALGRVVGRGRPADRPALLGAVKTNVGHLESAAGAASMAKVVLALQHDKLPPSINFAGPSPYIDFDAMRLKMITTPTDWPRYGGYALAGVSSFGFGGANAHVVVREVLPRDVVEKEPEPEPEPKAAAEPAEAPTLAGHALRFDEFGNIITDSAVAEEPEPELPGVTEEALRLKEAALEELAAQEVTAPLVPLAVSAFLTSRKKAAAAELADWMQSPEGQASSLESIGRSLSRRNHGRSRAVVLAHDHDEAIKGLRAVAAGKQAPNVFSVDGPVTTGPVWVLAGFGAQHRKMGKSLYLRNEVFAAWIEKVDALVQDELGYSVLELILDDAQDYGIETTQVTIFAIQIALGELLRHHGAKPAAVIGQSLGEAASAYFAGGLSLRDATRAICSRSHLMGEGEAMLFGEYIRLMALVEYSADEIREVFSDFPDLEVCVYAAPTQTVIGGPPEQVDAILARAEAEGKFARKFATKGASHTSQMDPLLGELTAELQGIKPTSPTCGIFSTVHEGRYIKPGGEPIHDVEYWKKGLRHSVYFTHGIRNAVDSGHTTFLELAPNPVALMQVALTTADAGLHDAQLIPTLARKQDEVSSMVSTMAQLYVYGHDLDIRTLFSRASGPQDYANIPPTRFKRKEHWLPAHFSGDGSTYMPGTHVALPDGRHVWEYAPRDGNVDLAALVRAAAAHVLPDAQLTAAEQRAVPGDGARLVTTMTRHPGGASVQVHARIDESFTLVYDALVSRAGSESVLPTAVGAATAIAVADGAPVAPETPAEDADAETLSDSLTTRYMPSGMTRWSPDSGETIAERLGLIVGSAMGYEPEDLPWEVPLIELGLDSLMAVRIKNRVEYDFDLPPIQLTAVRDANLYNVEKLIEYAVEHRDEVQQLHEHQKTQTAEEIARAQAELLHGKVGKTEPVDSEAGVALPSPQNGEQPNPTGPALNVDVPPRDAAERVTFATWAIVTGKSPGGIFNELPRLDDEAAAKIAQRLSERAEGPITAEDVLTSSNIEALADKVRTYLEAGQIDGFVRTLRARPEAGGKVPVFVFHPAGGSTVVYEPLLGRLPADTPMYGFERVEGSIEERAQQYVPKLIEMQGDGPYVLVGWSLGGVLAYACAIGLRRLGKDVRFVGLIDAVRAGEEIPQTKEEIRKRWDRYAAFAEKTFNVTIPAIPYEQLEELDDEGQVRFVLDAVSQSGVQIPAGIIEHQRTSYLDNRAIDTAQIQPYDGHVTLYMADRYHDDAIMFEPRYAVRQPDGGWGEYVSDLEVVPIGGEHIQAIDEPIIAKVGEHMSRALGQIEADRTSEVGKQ
UniProt P9WPC5, whole entry: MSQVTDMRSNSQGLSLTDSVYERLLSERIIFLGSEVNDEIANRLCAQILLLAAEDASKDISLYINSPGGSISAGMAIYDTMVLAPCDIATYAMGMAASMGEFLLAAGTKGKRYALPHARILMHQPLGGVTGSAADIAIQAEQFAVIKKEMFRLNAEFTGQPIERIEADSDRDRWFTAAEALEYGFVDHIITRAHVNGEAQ
UniProt P9WPC3, whole entry partner: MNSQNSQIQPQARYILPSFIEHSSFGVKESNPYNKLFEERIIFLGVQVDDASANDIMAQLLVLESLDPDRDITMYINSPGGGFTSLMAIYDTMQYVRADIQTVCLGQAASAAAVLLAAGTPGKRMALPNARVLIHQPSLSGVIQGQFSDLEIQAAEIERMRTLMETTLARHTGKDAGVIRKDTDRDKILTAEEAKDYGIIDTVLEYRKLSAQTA
UniProt A4I591, 1-473: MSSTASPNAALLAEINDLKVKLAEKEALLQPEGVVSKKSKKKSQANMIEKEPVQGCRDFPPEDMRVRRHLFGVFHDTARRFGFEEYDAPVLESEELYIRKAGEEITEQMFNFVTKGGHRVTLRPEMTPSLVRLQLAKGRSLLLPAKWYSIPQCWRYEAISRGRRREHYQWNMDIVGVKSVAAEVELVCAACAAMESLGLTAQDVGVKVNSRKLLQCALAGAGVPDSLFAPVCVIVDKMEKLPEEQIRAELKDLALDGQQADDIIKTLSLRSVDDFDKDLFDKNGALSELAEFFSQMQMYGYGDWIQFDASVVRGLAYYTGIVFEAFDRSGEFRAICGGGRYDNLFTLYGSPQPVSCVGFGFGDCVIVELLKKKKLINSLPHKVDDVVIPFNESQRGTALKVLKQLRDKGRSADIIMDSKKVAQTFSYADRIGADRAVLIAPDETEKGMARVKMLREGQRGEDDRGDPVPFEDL
UniProt P9WFT3, whole entry: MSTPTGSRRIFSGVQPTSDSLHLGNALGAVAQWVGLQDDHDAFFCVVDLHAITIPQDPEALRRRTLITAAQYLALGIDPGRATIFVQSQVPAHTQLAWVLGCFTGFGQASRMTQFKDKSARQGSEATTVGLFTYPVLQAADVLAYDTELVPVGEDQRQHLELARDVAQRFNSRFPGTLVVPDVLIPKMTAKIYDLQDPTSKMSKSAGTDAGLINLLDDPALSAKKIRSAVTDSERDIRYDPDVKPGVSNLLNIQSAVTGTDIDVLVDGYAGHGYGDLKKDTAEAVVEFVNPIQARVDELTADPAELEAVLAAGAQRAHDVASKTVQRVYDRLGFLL

From ChEMBL document CHEMBL3988442, “University of Dundee, Small-Polar-MMV Screening Library” (2021).

CoaBC: 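Coenzyme A biosynthesis protein CoaBC, Mycobacterium tuberculosis (UniProt P9WNZ1). Enzyme assay of CoaBC with a phosphate dye (Biomol Green) read at 650 nm. Tested at 30 µM. Direction is inferred from only a few compounds that gave an IC50; most scored high, so higher reads as stronger inhibition. Most strong results did not repeat in a second test. Of about 67,000 compounds tested this way, about 40 (0.06%) reached 50% or more in at least one test.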
Pks13 thioesterase: 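Enzyme assay of the thioesterase domain of polyketide synthase 13; the read-out is not stated. Target: Polyketide synthase Pks13, Mycobacterium tuberculosis (UniProt I6X8D2). Concentration: 30 µM. Higher reads as stronger inhibition (inferred from which compounds were picked for retests). About 67,000 compounds were tested under these conditions; 0.46% (about 300) showed 50% or more at least once.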
ClpP1P2: 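ClpP1P2, Mycobacterium tuberculosis (UniProt P9WPC5 and UniProt P9WPC3). Protease assay of ClpP1P2, read by the AMC dye that it sets free. Compounds at 50 µM. Higher reads as stronger inhibition, judged from the few compounds that gave an IC50. Most other retested compounds had strongly negative values. About 69,000 compounds were tested under these conditions; 0.015% (about 10) showed 50% or more at least once.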
LiHisRS: 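Histidine-tRNA ligase, Leishmania infantum (UniProt A4I591). Enzyme assay of histidyl-tRNA synthetase; the read-out is not stated. Concentration: 30 µM. Direction is inferred from retests: higher values go with stronger inhibition. The assay is labelled LdHisRS but filed under L. infantum. Size under these conditions: about 69,000 compounds, about 410 of them at 50% or above in at least one test.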
MtTrpRS: 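Enzyme assay of tryptophanyl-tRNA synthetase; the read-out is not stated. Target: Tryptophan-tRNA ligase, Mycobacterium tuberculosis (UniProt P9WFT3). Compounds at 10 µM. Higher most likely means stronger inhibition; the record gives no direction and few retests gave an IC50. About 65,000 compounds were tested under these conditions; 0.098% (about 64) showed 50% or more at least once.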

The filed quantity is “Percent Effect” (%).
The record does not define 0% and 100%; most values in the screen are far below 50% and negative numbers occur (in some assays of this library far below -100).
This is an unselected part of the compounds tested.
A dash means the value is not listed here; it may have been measured.

| # | structure | CoaBC | Pks13 thioesterase | ClpP1P2 | LiHisRS | MtTrpRS |
|---|---|---|---|---|---|---|
| 1 | `CCn1cc(-c2nn3c(C(F)(F)F)nnc3s2)cn1` | 1.205 | 4.395 | -0.6556 | 5.495 | -0.9709 |
| 2 | `CC1(C)CNC(=O)c2nc(-c3nnc(-c4ccccc4)[nH]3)[nH]c2C1` | -0.6593 | -31.3 | -4.427 | 17.14 | -0.6988 |
| 3 | `Cc1nc(NCc2nccn2C)cc(C2COCCN2)n1` (stereo not given) | -7.891 | 17.44 | -17.17 | 14.08 | -6.332 |
| 4 | `COc1ccc(-n2ccnc2-c2cnc(C(C)C)nc2)cc1C(=O)O` | -0.9153 | -23.63 | -1.188 | 9.859 | -1.966 |
| 5 | `CCCS(=O)(=O)N1CC(=O)N(CCCc2ccccc2)CC(O)C1` (stereo not given) | 1.35 | 9.695 | -2.593 | 18.56 | - |
| 6 | `COC(=O)c1ccoc1CN(C1CC1)C1CCS(=O)(=O)C1` (stereo not given) | -0.3236 | -2.991 | -11.73 | 12.94 | 2.725 |
| 7 | `CCC(=O)Nc1ccc2c(c1)C1(CCOCC1)CN2CCOC` | -2.228 | 2.564 | 5.393 | 45.95 | - |
| 8 | `c1cnc(N2CCO[C@H]3CN(CC4CCOC4)C[C@H]32)cn1` (stereo not given in full) | 0 | -2.769 | -14.01 | 15.32 | - |
| 9 | `COc1cccc([C@@H](C)n2ccnc2-c2cc3n(n2)CCNC3)c1` | 1.583 | -16.16 | 1.826 | 16.13 | 2.577 |
| 10 | `Cc1cc(C)n(CC2CCCCN2C(=O)c2cnn(C)c2)n1` (stereo not given) | 2.999 | -11.71 | -2.902 | 1.351 | -2.111 |
| 11 | `Cc1cccc(-n2cc(CNc3ncnc4c3CCNCC4)cn2)c1` | 6.988 | 5.097 | -18.67 | 5.495 | 2.006 |
| 12 | `CN(C)c1cc(CNc2cncc(-n3cccn3)n2)ccn1` | 3.823 | -0.213 | -12.14 | 9.615 | -2.466 |
| 13 | `Cc1nnsc1C(=O)N1CCC(c2nc3ccccc3[nH]2)CC1` | 0 | -27.58 | 6.403 | 19.54 | -1.876 |
| 14 | `CC(C)c1noc(CCCC(=O)NC(C)c2ccccn2)n1` (stereo not given) | -0.6337 | -17.65 | -26.1 | 7.143 | -3.578 |
| 15 | `O=C1NCCCCC1Sc1nnc(N2CCCC2)n1C1CC1` (stereo not given) | 5.128 | -10.33 | 5.158 | 26.03 | 6.085 |
| 16 | `Cc1c(COC(C)C)cccc1NC(=O)N1CCC(N2CCCC2)C1` (stereo not given) | 0.3891 | 3.487 | -2.03 | 22.52 | -0.9497 |
| 17 | `CC(O)CN1CCC(CN(C)Cc2cccc(C(=O)N(C)C)c2)CC1` (stereo not given) | 0 | 0.6521 | 12.89 | 9.091 | 6.316 |
| 18 | `CCn1nc(C)c2ccn(CC(=O)NC3CCCC3)c(=O)c21` | -2.155 | -7.221 | -15.22 | 4.854 | 1.654 |
| 19 | `CCCNC(=O)NCc1cccnc1OC` | -1.434 | -7.698 | 7.967 | 20.27 | 0.5912 |
| 20 | `CCc1nccn1CCCn1ccnc1-c1[nH]cnc1C` | -1.631 | 0.6583 | -14.78 | 8.475 | -4.968 |
| 21 | `CCc1noc(CN2CCN(C(=O)N(C)C)CC2)n1` | 1.542 | -21.02 | -13.64 | -10.11 | -0.8655 |
| 22 | `CCCNC(=O)c1ccc(S(=O)(=O)NCC2(O)CCCNC2)cc1` (stereo not given) | 11.2 | -1.882 | -8.287 | 5.128 | -4.919 |
| 23 | `Cc1ccc(C(=O)N2CCC3(CC2)CN(c2ccccn2)CCO3)cc1` | -0.2028 | -0.9075 | -5.151 | 11.93 | 1.91 |
| 24 | `CCC1CN(C(=O)c2ccc(O)c(C)c2)CCN1C(C)C` (stereo not given) | -0.4894 | -33.1 | 2.444 | 23.29 | -4.257 |
| 25 | `CN(Cc1ccon1)C(=O)C1CC(=O)N(Cc2ccncc2)C1` (stereo not given) | -7.93 | -5.786 | 5.296 | 16.98 | 2.85 |
| 26 | `Cc1c(C(=O)NC(C)C(C)C)nnn1-c1cccc2c1CCN(C)C2` (stereo not given) | -6.883 | - | -10.57 | 20 | 2.225 |
| 27 | `CCn1ccnc1C1CCCN(c2nccc3ccccc23)C1` (stereo not given) | 1.366 | 4.566 | -17.12 | 10.83 | -2.605 |
| 28 | `O=C(Cc1cccnc1)N1CCCC(n2cncn2)C1` (stereo not given) | 3.947 | -1.973 | 9.584 | 10.71 | -3.899 |
| 29 | `Cc1nc(NCCc2ccc(Cl)cc2)cc(C(=O)N2CCCCC2)n1` | -0.9091 | 2.609 | 7.851 | -2.83 | -5.882 |
| 30 | `COCCN(C)Cc1nc(-c2cccc(F)c2F)oc1C` | -2.058 | 8.453 | -15.3 | 5.435 | -1.244 |
| 31 | `CC(C)(C)C(=O)NCCn1ccc(-c2ccccn2)n1` | -0.3953 | -11.04 | -9.388 | 5.479 | 1.696 |
| 32 | `Cc1nc(Nc2ncccn2)cc(C2CN(C(=O)c3cccnc3)C2)n1` | -1.363 | 1.057 | -10.68 | -4 | - |
| 33 | `O=C(Nc1cc(Cl)ccc1Cl)NC1CCN(C2CCOC2)CC1` (stereo not given) | -5.041 | -1.489 | -1.504 | 12.61 | -1.65 |
| 34 | `COc1cccc(CNC(=O)c2ccccc2-n2cnc(CN)c2)c1` | 0 | 10.22 | -1.202 | 22.68 | - |

The last 2 entries again:

structure,CoaBC,Pks13 thioesterase,ClpP1P2,LiHisRS,MtTrpRS
O=C(Nc1cc(Cl)ccc1Cl)NC1CCN(C2CCOC2)CC1 (stereo not given),-5.041,-1.489,-1.504,12.61,-1.65
COc1cccc(CNC(=O)c2ccccc2-n2cnc(CN)c2)c1,0,10.22,-1.202,22.68,-